Laboratory results as given in paper PMC4432624, “Prdx4 is a compartment-specific H2O2 sensor that regulates neurogenesis by controlling surface expression of GDE2” (Nature Communications, 2015).

Target: T1, chick GDE2, FLAG-tagged (chick) (UniProt Q3KTM2)
T1 sequence: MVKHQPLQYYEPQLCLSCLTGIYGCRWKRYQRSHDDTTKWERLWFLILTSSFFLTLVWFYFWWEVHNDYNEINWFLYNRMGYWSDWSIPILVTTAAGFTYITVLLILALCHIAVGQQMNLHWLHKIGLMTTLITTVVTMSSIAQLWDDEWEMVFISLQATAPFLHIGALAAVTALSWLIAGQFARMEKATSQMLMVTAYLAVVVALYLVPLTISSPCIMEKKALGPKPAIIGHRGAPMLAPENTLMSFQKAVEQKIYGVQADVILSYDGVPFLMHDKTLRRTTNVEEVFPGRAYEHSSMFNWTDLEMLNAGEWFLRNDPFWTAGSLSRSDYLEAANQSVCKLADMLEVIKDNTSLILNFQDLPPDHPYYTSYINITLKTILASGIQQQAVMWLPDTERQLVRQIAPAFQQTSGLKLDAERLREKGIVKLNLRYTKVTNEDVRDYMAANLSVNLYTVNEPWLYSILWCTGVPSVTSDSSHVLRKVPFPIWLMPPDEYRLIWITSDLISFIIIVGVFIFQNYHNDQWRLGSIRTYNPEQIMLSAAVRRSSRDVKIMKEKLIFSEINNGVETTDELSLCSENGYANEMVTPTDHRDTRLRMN
Assay: co-IP; extracts of transfected HEK293T cells; FLAG-tagged GDE2 and HA-tagged Prdx4 forms; anti-FLAG M2 Affinity gel or antibodies with GammaBind G sepharose; 100 mM maleimide included; eluted in non-reducing sample buffer

Substance: chick Prdx4, three HA tags on the N terminus (enzyme)
- binding: binds

No constants are given. Whether binding was seen depends on the method and setting. Binding seen in cells or lysates may run through a third protein. A result given as binding can be weak or reduced; the word gives no strength. Where a sequence is shown, tags or fusion partners need not be part of it.
